From US20210139907 come the findings set out here.

Chains of the proteins cited; added tags and fusions are not shown. Chains listed by the source or under a name are the forms on record and can include a tag or linker. Residues count along the entry.
UniProt Q8WW62, 22-240: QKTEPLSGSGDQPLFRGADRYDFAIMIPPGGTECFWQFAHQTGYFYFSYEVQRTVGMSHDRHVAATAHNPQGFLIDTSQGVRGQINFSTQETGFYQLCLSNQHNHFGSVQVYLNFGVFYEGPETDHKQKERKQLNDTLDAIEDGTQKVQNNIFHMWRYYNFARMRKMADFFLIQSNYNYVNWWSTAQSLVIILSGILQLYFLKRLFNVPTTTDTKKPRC
Clusterin (Homo sapiens), one chain, as listed by the source, chain 1 of 2: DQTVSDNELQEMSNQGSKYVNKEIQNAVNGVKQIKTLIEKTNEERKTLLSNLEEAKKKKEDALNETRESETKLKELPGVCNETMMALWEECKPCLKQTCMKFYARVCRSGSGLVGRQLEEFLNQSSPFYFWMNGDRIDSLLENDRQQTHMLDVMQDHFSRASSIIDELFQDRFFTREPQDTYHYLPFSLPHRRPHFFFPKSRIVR
Clusterin (Homo sapiens), one chain, as listed by the source, chain 2 of 2: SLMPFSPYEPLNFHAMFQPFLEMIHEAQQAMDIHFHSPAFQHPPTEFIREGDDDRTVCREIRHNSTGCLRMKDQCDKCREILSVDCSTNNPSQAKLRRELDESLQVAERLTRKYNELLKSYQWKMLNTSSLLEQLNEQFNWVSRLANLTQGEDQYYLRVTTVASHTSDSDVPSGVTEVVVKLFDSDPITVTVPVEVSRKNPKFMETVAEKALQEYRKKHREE

For at least one entry, the source does not settle the construct or the ends of the probe. For some assays here: Where cells or extracts were used, other partners may take part.

One series deals with TMED6 (Homo sapiens) (UniProt Q8WW62). The experiment in a line: binding assay. The conditions noted are these: 2'-F pyrimidines (2'-F-dCTP, 2'-F-dUTP in selection transcription); protein array of >19,000 recombinant human proteins, Cy3-aptamer 1 ug, RT 30 min; TMED6 most likely ligand; purified recombinant protein; label: Cy3.
The subject of a further series is Clusterin (Homo sapiens). The experiment in a line: pull-down. The conditions noted are these: 2'-F pyrimidines (2'-F-dCTP, 2'-F-dUTP in selection transcription); human islet lysate, magnetic bead capture and mass spectrometry (score 236); clusterin silencing reduced aptamer binding to beta cells; described as possible target; protein in an extract; label: 3' biotin.

Consider “GGAGGACGAUGCGGUAAUUCUCAGGAGGUGCGGAACGGGAUAUGGAUUGUUCGCCAGACGACUCGCUGAGGAUCCGAGA [1-717]”, for which, in the series with TMED6 (Homo sapiens), the binding result is “binds”.
Consider “GGAGGACGAUGCGGCAACAAACUAAUCAGACACGAGACAGAGAGAUAGAUCUGCCAGACGACUCGCUGAGGAUCCGAGA [m12-3773]”, for which the binding result in the series with Clusterin (Homo sapiens) is “binds”.
